# Data: patent US9163032B2, “Esters of DCPLA and methods of treatment using the same” (Blanchette Rockefeller Neurosciences Institute, priority 2011, dated 2015)
# Some of these results come from one statement about several compounds together.
# Target: T1, PKC-ε (Homo sapiens, UniProt Q02156)
# T1 sequence (Q02156 1-737): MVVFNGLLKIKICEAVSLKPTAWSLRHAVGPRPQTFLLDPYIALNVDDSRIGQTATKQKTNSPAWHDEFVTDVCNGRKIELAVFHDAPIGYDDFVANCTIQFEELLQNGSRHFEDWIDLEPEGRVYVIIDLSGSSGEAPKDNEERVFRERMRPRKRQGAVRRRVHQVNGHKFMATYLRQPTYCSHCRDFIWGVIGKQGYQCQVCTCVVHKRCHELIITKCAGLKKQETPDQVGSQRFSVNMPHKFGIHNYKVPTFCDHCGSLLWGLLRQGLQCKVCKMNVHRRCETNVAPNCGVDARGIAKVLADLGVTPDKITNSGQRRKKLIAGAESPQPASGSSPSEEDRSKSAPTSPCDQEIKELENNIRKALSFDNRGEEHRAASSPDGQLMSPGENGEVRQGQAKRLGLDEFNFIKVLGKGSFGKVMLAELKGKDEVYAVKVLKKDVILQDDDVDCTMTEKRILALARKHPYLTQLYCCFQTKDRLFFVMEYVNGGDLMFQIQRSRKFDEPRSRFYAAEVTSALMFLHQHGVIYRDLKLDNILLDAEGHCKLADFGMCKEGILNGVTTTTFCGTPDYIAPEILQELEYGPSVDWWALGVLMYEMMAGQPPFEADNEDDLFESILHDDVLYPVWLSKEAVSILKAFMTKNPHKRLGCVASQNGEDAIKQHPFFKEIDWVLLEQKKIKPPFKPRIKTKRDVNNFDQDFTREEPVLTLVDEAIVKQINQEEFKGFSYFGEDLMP
# Assay: PKC activation assay with purified PKC-ε isozyme (32P-phosphoprotein formation)
# Type: biochemical
# Settings: low-affinity / high-affinity activator groups
# Method: For measurement of PKC activation by DCPLA-ME, activation of recombinant PKC-α, PKC-ε, and PKC-δ was evaluated. DCPLA-ME induced activation was measured in the absence of diacylglycerol (DAG) and phosphatidylserine (PS) as described earlier. See Nelson, T. J. et al., J. Biol. Chem., 2009, 284: 34514-34521, and Kanno, T. et al., J. Cell Physiol., 2009, 221: 183-188. Individual enzymes were incubated for 15 min at 37° C. in the presence of 10 μM histones, 4.89 mM CaCl2, 10 mM MgCl2, 20 mM HEPES (pH 7.4), 0.8 mM EDTA, 4 mM EGTA, 4% glycerol, 8 μg/ml aprotinin, 8 μg/ml leupeptin, 2 mM benzamidine, and 0.5 μCi of [γ-^32P]ATP. Purified PKC-α, PKC-ε and PKC-δ were preincubated with DCPLA-ME for 5 min at room temperature. [^32P]-Phosphoprotein formation was measured by adsorption onto phosphocellulose.
# To measure PKC, 10 μl of cell homogenate or purified PKC isozyme was incubated for 15 min at 37° C. in the presence of 10 μM histones, 4.89 mM CaCl2, 1.2 μg/μl phosphatidyl-L-serine, 0.18 μg/μl 1,2-dioctanoyl-sn-glycerol, 10 mM MgCl2, 20 mM HEPES (pH 7.4), 0.8 mM EDTA, 4 mM EGTA, 4% glycerol, 8 μg/ml aprotinin, 8 μg/ml leupeptin, and 2 mM benzamidine. [γ32P]ATP (0.5 μCi) was added and 32P-phosphoprotein formation was measured by adsorption onto phosphocellulose as described previously. See Nelson et al., J. Neurochemistry, 1995, 65: 2350-2357.
# PKC activity of each compound was measured in the absence of diacylglycerol and phosphatidyl-L-serine and PKC-δ and PKC-ε were measured in the absence of added EGTA and CaCl2, as described by Kanno et al., J. Lipid Res., 2006, 47: 1146-1156. Low concentrations of Ca^2+ are needed because high Ca^2+ interacts with the PKC phosphatidylserine binding site and prevents activation. […] To determine their PKC isozyme specificity, the compounds were pre-incubated with purified isoforms of PKC for five minutes and the PKC activity was measured radiometrically.
# The activation and PKC isozyme specificity of DCPLA-ethyl ester was measured following the procedures in Example 1(B) and (C), except that 9 ng of the purified isozyme was used and it was pre-incubated for 5 minutes at room temperature (FIG. 3). PKC-ε activation by DCPLA-tert-butyl ester and DCPLA-retinyl ester was measured in the same manner as DCPLA-ethyl ester (FIG. 3).
# The EC50 values, PKC specificity, and activation for a select number of DCPLA esters was determined (see Table 1). EC50 values were determined by measuring the lowest concentration that activates by 50% of maximum activation. […] The specificity and activation of PKC by the various esters of DCPLA were determined from the measurements of activation of PKC isozymes.
row,SMILES,concentration at which PKC-ε is generally activated
1,CCCCCC1CC1CC1CC1CCCCCCCC(=O)OC/C=C(C)/C=C/C=C(C)/C=C/C1=C(C)CCCC1(C)C (stereo not drawn) [DCPLA-retinyl ester],100 to 1000 nM
2,CCCCCC1CC1CC1CC1CCCCCCCC(=O)OC(C)C (stereo not drawn) [DCPLA-isopropyl ester],0.1 to 1 nM
3,"CCCCCC1CC1CC1CC1CCCCCCCC(=O)OC (stereo not drawn) [DCPLA-ME, DCPLA methyl ester]",100 to 1000 nM
4,"CCCCCC1CC1CC1CC1CCCCCCCC(=O)OC1CC[C@@]2(C)C(=CC[C@H]3[C@H]4CC[C@H]([C@H](C)CCCC(C)C)[C@@]4(C)CC[C@H]32)C1 (stereo partly drawn) [DCPLA-cholesteryl ester, DCPLA cholesteryl ester]",0.1 to 1 nM
5,"CCCCCC1CC1CC1CC1CCCCCCCC(=O)OC(C)(C)C (stereo not drawn) [DCPLA-t-butyl ester, DCPLA-tert-butyl ester]",100 to 1000 nM
6,CCCCCCCCC1CC1CCCCCCCCOC(=O)CCCCCCCC1CC1CC1CC1CCCCC (stereo not drawn) [DCPLA-cyclopropanated oleyl ester],100 to 1000 nM
